This is an account of results in PMC10399710.

Sequences of proteins named here, by UniProt entry; tags and fusion partners are left off. A change or cut given only in a name is not applied to a line headed by its entry. Residues count along the entry.
UniProt P01033, residues 24-207: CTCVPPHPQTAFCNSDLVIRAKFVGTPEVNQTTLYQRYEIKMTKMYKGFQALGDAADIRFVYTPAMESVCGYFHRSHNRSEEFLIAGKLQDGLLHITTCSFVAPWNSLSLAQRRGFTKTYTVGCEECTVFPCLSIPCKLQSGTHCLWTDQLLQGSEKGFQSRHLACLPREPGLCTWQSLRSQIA
UniProt P04233: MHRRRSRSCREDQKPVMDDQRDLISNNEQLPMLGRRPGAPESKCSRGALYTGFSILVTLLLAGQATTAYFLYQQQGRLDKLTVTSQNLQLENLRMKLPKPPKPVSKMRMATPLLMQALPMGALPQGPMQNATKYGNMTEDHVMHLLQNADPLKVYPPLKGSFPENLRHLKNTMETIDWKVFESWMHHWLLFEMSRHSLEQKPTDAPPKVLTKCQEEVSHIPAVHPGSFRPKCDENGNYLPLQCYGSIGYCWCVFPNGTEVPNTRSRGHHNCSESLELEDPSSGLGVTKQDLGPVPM

Assay [1] addresses his6‐tagged human recombinant TIMP‐1 protein (rTIMP‐1) (human) (UniProt P01033). Nature of the assay: co-IP; MDA-MB-231 cells incubated with rTIMP-1 for 15 min, washed, lysed; TIMP-1 precipitated with VT-4 antibody-coupled Dynabeads (1 h, 4 °C), CD74 detected by blot (LN-2); IgG1 beads as control; only the target purified.
The target in assay [2] is MHC class II‐associated invariant chain γ (CD74), endogenous in MDA‐MB‐231 cells (human (endogenous in MDA‐MB‐231)) (UniProt P04233). Kind of assay: proximity ligation; Duolink in situ PLA in fixed MDA-MB-231 cells under standard growth conditions (also after IFNγ; signal lost after CD74 siRNA); proximity < 40 nm.
Assay [3] shares this target. Kind of assay: proximity ligation; Duolink in situ PLA in fixed MDA-MB-231 cells after addition of rTIMP-1 (5 μg/mL); proximity < 40 nm; only the binder purified.
Assay [4] shares this target. Nature of the assay: co-IP; MDA-MB-231 cells incubated with rTIMP-1 for 15 min, washed, lysed; CD74 precipitated with LN-2 antibody-coupled Dynabeads (1 h, 4 °C), TIMP-1 detected by blot (VT-7); IgG1 beads as control; only the binder purified.

Results are given in words; binding and its absence hold for the method and conditions named. In cells and extracts the contact can be indirect. Some results given as binding are weak or reduced against the parent protein; the word gives no strength.

Take “MHC class II‐associated invariant chain γ (CD74), endogenous in MDA‐MB‐231 cells (from UniProt P04233 1-296)”: in assay [1], the binding result is reported as “binds”.

As to “TIMP‐1, endogenous in MDA‐MB‐231 cells (from UniProt P01033 24-207)”, the binding entry in assay [2] is reported as “binds”.

Regarding “his6‐tagged human recombinant TIMP‐1 protein (rTIMP‐1) (from UniProt P01033 24-207)”, the binding result in assay [3] and in assay [4] was “binds” each time.
